Here are results for seven molecules from the supplement of paper PMC6143611.

Structures are written as SMILES. ± gives the uncertainty stated by the source. The list shows a part of the results. Part of the spread comes from offsets between plates or batches.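 Larvae carried a heat-shock-induced fluorescent stripe in rod outer segments, set at 6 dpf; the shedding distance runs from this stripe to the outer segment tip, measured in confocal stacks, about three fish per compound. The controls got 0.2% DMSO vehicle, and the paper flagged compounds with at least a 20% change against the same-week control and p < 0.001 (Dunnett test on mixed-effects models).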

The experiment relates to Danio rerio larva rod photoreceptor outer segment. Description: rod outer segment growth distance Dg, difference from same-week DMSO control mean; higher = more outer segment growth. Conditions: 20 µM; treatment time: 4 days (6-10 dpf).
On to `CCN1CCN(C(=O)N[C@@H](C(=O)N[C@@H]2C(=O)N3C(C(=O)O)=C(CSc4nnnn4C)CS[C@H]23)c2ccc(O)cc2)C(=O)C1=O` [Cefoperazone], for which the “rod outer segment growth distance Dg” value is -0.21 ± 0.18 um. For the molecule `O=c1[nH]cnc2c1ncn2[C@@H]1O[C@H](CO)[C@@H](O)[C@H]1O` [Inosine], the “rod outer segment growth distance Dg” value was -0.52 ± 0.31 um. The figure for `CCc1cc(Nc2nccc(-c3c(-c4ccc(OC)c(C(=O)Nc5c(F)cccc5F)c4)nc4ccccn34)n2)c(OC)cc1N1CCC(N2CCN(S(C)(=O)=O)CC2)CC1` is -1.34 ± 0.17 um.

As for `C[S+]([O-])c1ccc(-c2nc(-c3ccc(F)cc3)c(-c3ccncc3)[nH]2)cc1` (configuration not stated), the “rod outer segment growth distance Dg” value was -0.96 ± 0.16 um. With `CC[C@H](/C=C/[C@@H](C)[C@H]1CC[C@H]2[C@@H]3CC=C4C[C@@H](O)CC[C@]4(C)[C@H]3CC[C@]12C)C(C)C` [Stigmasterol], the “rod outer segment growth distance Dg” value turned out to be 0.38 ± 0.22 um. The value for `CN1CC(=O)N2[C@H](c3ccc4c(c3)OCO4)c3[nH]c4ccccc4c3C[C@@H]2C1=O` [Tadalafil] was -0.08 ± 0.18 um. Take `CC(C(=O)O)c1cccc(C(=O)c2ccccc2)c1` (configuration not stated) [Ketoprofen]: the “rod outer segment growth distance Dg” value was -1.33 ± 0.23 um.
